Test results taken from patent US20230022796A1 (Merck Patent GmbH, priority 2019, published 2023).

What was measured:
[1] = test system: four investigated CHO cell lines; assay: Fed-batch cellular performance (VCD and titer), four CHO cell lines; type: cell-based, Chinese hamster; conditions: feed with 400 μM additive, four biological replicates, vs two control conditions and positive control
[2] = test system: CHO cell line producing mAb2; assay: Fed-batch cell performance (titer), clone 2 producing mAb2; type: cell-based, Chinese hamster; conditions: mAb2, feed with 400 μM additive, day 17

Row | Molecule | impact on the cellular performance (VCD and titer) [1] | titer [2] [g/L]
1 | C[C@@H]1SC(O)[C@@H](O)[C@H](O)[C@@H]1O (some centres unmarked) | no significant impact | 2.02
2 | CC(=O)OC1O[C@@H](C)[C@@H](OC(C)=O)[C@@H](OC(C)=O)[C@@H]1F (some centres unmarked) [2F-Peracetylfucose, reference compound] |  | 1.78
3 | acetylated 5-Thio-L-Fucose | no significant impact | 1.82
